# Test results from paper PMC7819943, “Rice protein-binding microarrays: a tool to detect cis-acting elements near promoter regions in rice”.
# The chains behind the UniProt entries cited, without tags or fusion partners.
# UniProt Q0JBA9, entry or part of it: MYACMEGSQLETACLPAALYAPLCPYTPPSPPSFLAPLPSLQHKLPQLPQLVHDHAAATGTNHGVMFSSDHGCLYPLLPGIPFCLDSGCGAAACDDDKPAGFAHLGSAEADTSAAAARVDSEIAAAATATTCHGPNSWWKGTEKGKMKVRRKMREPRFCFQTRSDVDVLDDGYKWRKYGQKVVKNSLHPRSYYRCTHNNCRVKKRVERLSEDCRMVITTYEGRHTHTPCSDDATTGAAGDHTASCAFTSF
# The other results are listed elsewhere or left out.
# Biological target: OsWRKY34 (Oryza sativa, UniProt Q0JBA9 1-250)
# Test: protein-binding microarray (RPBM); PBS, 2% BSA, 51.3 ng/ul salmon testes DNA, 50 uM zinc acetate, 200 nM TF, 25 C, 1 h; high values mean tight binding
# Conditions: protein: recombinant; tags: N-terminal polyhistidine and DsRed monomer fusion (pET32a); label: CyDye5-dUTP incorporated in the synthesized complementary strand; 3' TTTTT single-stranded linker to array surface; dsDNA, one strand shown
# Method in brief: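 Transcription factors, each fused N-terminally to a polyhistidine tag and DsRed, were expressed in E. coli BL21-CodonPlus and purified on Ni–NTA. A custom Agilent array was made double-stranded by primer extension with Cy5-dUTP and blocked with 2% BSA. It was incubated with 200 nM protein in PBS, 2% BSA, salmon testes DNA and 50 µM zinc acetate at 25 °C for 1 h, then washed. The binding signal is per-feature fluorescence intensity (arbitrary units) read on an Axon 4000B scanner.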
row,Sequence,binding signal
1,TGGTGGTTGACATGCGAGTCCTTTGACCCTATGTCATTTCCGGAGTCACCTAGTGCAG,9510 fluorescence intensity (a.u.)
2,GAGCTCTCATGTTCTGTTCGCTGTTAATTAATCGTCTAATCGGAGTCACCTAGTGCAG,9580 fluorescence intensity (a.u.)
3,CCCACTGCGCACCGCTTCCTGGTTCGCCTTGCTTCCCAATCGGAGTCACCTAGTGCAG,8580 fluorescence intensity (a.u.)
4,CTTGCTTGGCAACTGATCCGGCGCTCCACCATTCAACCGACGGAGTCACCTAGTGCAG,8210 fluorescence intensity (a.u.)
5,GCGCCCTGTCCGTCTTCAAGTTCATCCAAGCGCCGTCGGTCGGAGTCACCTAGTGCAG,9590 fluorescence intensity (a.u.)
6,CCTCCGCTCCTAAATATTTGACACCGCTGACTTTTTAAAACGGAGTCACCTAGTGCAG,11100 fluorescence intensity (a.u.)
7,CTCCGACGACCCCACCGTGCCCACCCCGACCGCCGTCTCGCGGAGTCACCTAGTGCAG,9650 fluorescence intensity (a.u.)
8,GTGACACGGTTTCCAAAACACAACATTGACTTTCTTATTTCGGAGTCACCTAGTGCAG,8620 fluorescence intensity (a.u.)
9,ACATTTCCTGACTTTGGCCAACACACACCCCTAACCCTCACGGAGTCACCTAGTGCAG,11200 fluorescence intensity (a.u.)
10,CACTAATTGATCAATTGCACAACAAATTGCTTGAATAACGCGGAGTCACCTAGTGCAG,65500 fluorescence intensity (a.u.)
11,CCGCCGCCGCCATCGTCCTCTTCCGCCACCACCGCCATCGCGGAGTCACCTAGTGCAG,10000 fluorescence intensity (a.u.)
12,CGGCTCGGCTCGGCTCGCGCGGCGGCGGCGGCGGGGCGGCCGGAGTCACCTAGTGCAG,8890 fluorescence intensity (a.u.)
13,AGTGGGTGGTGGCGGGCGGCTAGAGTTTCGTACATATGCACGGAGTCACCTAGTGCAG,13900 fluorescence intensity (a.u.)
14,TCGAGGTGGGTTTAGTAGTGGCCTTGTGGGTTGGGCCAGTCGGAGTCACCTAGTGCAG,12200 fluorescence intensity (a.u.)
15,GGTGTTTCTCTGATTGAGGTCCTGCGCAGATCATCCTCTACGGAGTCACCTAGTGCAG,9480 fluorescence intensity (a.u.)
16,TAGGGTCCACTTGTCTCTCTCACAGAGTTTCTTGACTCTTCGGAGTCACCTAGTGCAG,9740 fluorescence intensity (a.u.)
17,TCCTCCGACTCGCCTCTTCCCACCAACTCCTTCCCCGATGCGGAGTCACCTAGTGCAG,8180 fluorescence intensity (a.u.)
18,CGGGCCCCACTTCCGTTCATTGCAAGTCGCTCCCAGCGCACGGAGTCACCTAGTGCAG,8120 fluorescence intensity (a.u.)
19,TCTTCAGCAGCATTCAACAGGGACGAAAATCCTTCTGCACCGGAGTCACCTAGTGCAG,8380 fluorescence intensity (a.u.)
20,GACTCATGTTCTCTGATTATTTTGATTTGTTAATCCAGCTCGGAGTCACCTAGTGCAG,8210 fluorescence intensity (a.u.)
21,AAAGGCTGCACGAGCCACTTGTATTACGTTGTCATTCCTTCGGAGTCACCTAGTGCAG,8400 fluorescence intensity (a.u.)

row,Sequence,binding signal
1,GAGATGATCCGCGTCCCTAATTCTATCGTTTGCGTTGTCACGGAGTCACCTAGTGCAG,8850 fluorescence intensity (a.u.)
2,ATTGTGCATTCCCCTTGCTGCTCGCTCCTCTAGATACATGCGGAGTCACCTAGTGCAG,8720 fluorescence intensity (a.u.)
3,ACCGGGCCAACAACACCACCACGACACGAATACTCTAAAACGGAGTCACCTAGTGCAG,9160 fluorescence intensity (a.u.)
4,GCGGGGTTCGTGGTGTGTGCGTGTGCGTCTCTCTCTGTCTCGGAGTCACCTAGTGCAG,21100 fluorescence intensity (a.u.)
5,TGGTTGTGGTGGTGGTGGTGGTGGTCACATCCGCTGCACTCGGAGTCACCTAGTGCAG,8280 fluorescence intensity (a.u.)
6,AGCGACAATGGGGTTGGGAGTGGATGGCGAGCTCGAGCTCCGGAGTCACCTAGTGCAG,11900 fluorescence intensity (a.u.)
7,TAATCCGCTGCCATCACCGGACGTTTTTTAAGCGGTTACACGGAGTCACCTAGTGCAG,8730 fluorescence intensity (a.u.)
8,CTCACTTACCCTAGCATGTTAACACTTGTAGTATCGGCGCCGGAGTCACCTAGTGCAG,12700 fluorescence intensity (a.u.)
9,ATGGGTAATATGTCTCACCCTGCTTGGTTGGTTTCGCATTCGGAGTCACCTAGTGCAG,8030 fluorescence intensity (a.u.)
10,ATCATCCTTATAGGCACACACAGTTCTCCTAGATCAGCACCGGAGTCACCTAGTGCAG,8540 fluorescence intensity (a.u.)
11,GGGAAAAGCACCGAAAAGCGCGGCCTTTTTTTCTTCTTTTCGGAGTCACCTAGTGCAG,8540 fluorescence intensity (a.u.)
12,CCTTGCTGGACTCGTCCTTATTTGTTATTCCCACGATGTTCGGAGTCACCTAGTGCAG,10600 fluorescence intensity (a.u.)
13,AGGCTTTGTTTTTTGTTTTTATTTGCTGTTTCTCTTCATCCGGAGTCACCTAGTGCAG,13000 fluorescence intensity (a.u.)
14,GAAAAATCTTTCCAGTGGTAGTGTGTTGCTCTCGGCCTCGCGGAGTCACCTAGTGCAG,8320 fluorescence intensity (a.u.)
15,TGCTGCCTGCCCCATGTCTTAATTTCTCTTTCTGCAGCTACGGAGTCACCTAGTGCAG,9490 fluorescence intensity (a.u.)
16,TTTATTCCCGCCATCTCATTCTCACCTACCCAATTGTCTCCGGAGTCACCTAGTGCAG,8420 fluorescence intensity (a.u.)
17,TCACGTTTCGGCACCCCGAGTTATCCTTACCCCGGCCGCGCGGAGTCACCTAGTGCAG,9220 fluorescence intensity (a.u.)
18,TCCTCCTCCGTCCGGTTCGCGCCGCGCTCCCTTCGTTCGTCGGAGTCACCTAGTGCAG,10500 fluorescence intensity (a.u.)
19,GTCTTGCCAGGCCTCAATATAGCCCTCTTTCCTACATCTTCGGAGTCACCTAGTGCAG,8040 fluorescence intensity (a.u.)
20,GTGCCTAACAATCTGCTGCTTTTTACCCGCCAAGTATCTTCGGAGTCACCTAGTGCAG,8180 fluorescence intensity (a.u.)
21,CCCAGCTGCCCACTGCTACCTCCGTTCCATAATAAGTTAACGGAGTCACCTAGTGCAG,8680 fluorescence intensity (a.u.)

row,Sequence,binding signal
1,GAATCCACGCGCTACAGACAACCGGAACCATGTCCATTCTCGGAGTCACCTAGTGCAG,8190 fluorescence intensity (a.u.)
2,TCCGTTTTTGTGGTTTTCGATGGATTCCGTCGTCGCCGACCGGAGTCACCTAGTGCAG,9660 fluorescence intensity (a.u.)
3,GGTCGTCGAGATCCTTATCCTCTTCGTGCTGACTCTATCGCGGAGTCACCTAGTGCAG,8280 fluorescence intensity (a.u.)
4,ACTGATAGGACTGAGTCGTCTCTAGTCTCGATTGCTTTTCCGGAGTCACCTAGTGCAG,8250 fluorescence intensity (a.u.)
5,GCCACCGTTTCTCCCAGCGCGCCGCAGCCGCCGCCGCCGGCGGAGTCACCTAGTGCAG,11100 fluorescence intensity (a.u.)
6,CTTGTTTGTTTAAACCTCTCCACCGCCGCCTCCTCCTTTCCGGAGTCACCTAGTGCAG,8260 fluorescence intensity (a.u.)
7,TGGTGCTCTCCCATTGTTCTTGGGTTTGCTGGTGCTATTCCGGAGTCACCTAGTGCAG,8560 fluorescence intensity (a.u.)
8,TTGTCTCTCCATGCATATTGGAAATTTGTGATATATATATCGGAGTCACCTAGTGCAG,9360 fluorescence intensity (a.u.)
9,TTGATTTCTCTGAGTTTGTGTTCTTGGCATCATCATCATTCGGAGTCACCTAGTGCAG,11400 fluorescence intensity (a.u.)
10,TCACTCAATCCCTTTCATACCCCTAAAATTTACCCGATCCCGGAGTCACCTAGTGCAG,9060 fluorescence intensity (a.u.)
11,GGTACTATTTATTGCTTTGATTTTATTATTTTTTCTCTAGCGGAGTCACCTAGTGCAG,8030 fluorescence intensity (a.u.)
12,TTGATCTGGGCCTAAATTTCTATTGTATCACCCTCTTAAACGGAGTCACCTAGTGCAG,10800 fluorescence intensity (a.u.)
13,GTATCATGGTGTATGGCCTACTTGGTGCTATTTGTATGAGCGGAGTCACCTAGTGCAG,8130 fluorescence intensity (a.u.)
14,GCGATATCTTGCCGTCCCCGTTGGTGTCGAACCGCTTGAACGGAGTCACCTAGTGCAG,11500 fluorescence intensity (a.u.)
15,GCGAGGACTAAGTGCCTCTTTTGTAAGTATTTTACGCTTTCGGAGTCACCTAGTGCAG,8110 fluorescence intensity (a.u.)
16,TGAGTCACTTCTTCTCTGTCCATATTCTATTTCTCCTCCACGGAGTCACCTAGTGCAG,8170 fluorescence intensity (a.u.)
17,TTCCGCTGCATTTCTCTACACAGCCACGTTGCTCCAACAACGGAGTCACCTAGTGCAG,11200 fluorescence intensity (a.u.)
18,CACCTAGTCAGCATGAGTGAACCGGGTCAACTTACCACATCGGAGTCACCTAGTGCAG,8020 fluorescence intensity (a.u.)
19,AGAACTCAGAGACAACAGACTTCCATATGACACACTCCTTCGGAGTCACCTAGTGCAG,8120 fluorescence intensity (a.u.)
20,AATTATTTATTGATTGTTATTTTTTTCGCGAACGCTTTATCGGAGTCACCTAGTGCAG,8150 fluorescence intensity (a.u.)
21,CGCGCTCGCCTGTCTTCGCTGTCGTCGGCCGTTGCTCTCCCGGAGTCACCTAGTGCAG,14200 fluorescence intensity (a.u.)

# Quoted from the listing (3 entries):
row,Sequence,binding signal
3,GGTCGTCGAGATCCTTATCCTCTTCGTGCTGACTCTATCGCGGAGTCACCTAGTGCAG,8280 fluorescence intensity (a.u.)
4,ACTGATAGGACTGAGTCGTCTCTAGTCTCGATTGCTTTTCCGGAGTCACCTAGTGCAG,8250 fluorescence intensity (a.u.)
5,GCCACCGTTTCTCCCAGCGCGCCGCAGCCGCCGCCGCCGGCGGAGTCACCTAGTGCAG,11100 fluorescence intensity (a.u.)

# (continued)

row,Sequence,binding signal
1,TCTGATTACTGCTTATTGAGTTACAACCTGCTATATTACACGGAGTCACCTAGTGCAG,8970 fluorescence intensity (a.u.)
2,ACGGAGGAACAACGCATGCAAATCTTCATGGCCGGCCTTCCGGAGTCACCTAGTGCAG,8450 fluorescence intensity (a.u.)
3,ATCAAGCTTTCGTCAGATCTCACGCTTATTTCTTCTCTCCCGGAGTCACCTAGTGCAG,8520 fluorescence intensity (a.u.)
4,GTATCATTGGTTTTCATTTGTTTGGTGTGTCAGAGGCATACGGAGTCACCTAGTGCAG,10300 fluorescence intensity (a.u.)
5,GATGCTGCATGGCACTTAAGTTGTATTTATGTGTGTGTACCGGAGTCACCTAGTGCAG,8190 fluorescence intensity (a.u.)
6,GCATGAGGTCTCCACCTCACCACAAGTCGCTCCACATCGACGGAGTCACCTAGTGCAG,8280 fluorescence intensity (a.u.)
7,CAAATATTTAGTCCCTGTTTCCCTGTCATTGCCTTCGACTCGGAGTCACCTAGTGCAG,10600 fluorescence intensity (a.u.)
8,AGTATAACCACCGGGCCCCACGCGTCATCCTCCCGCGCGTCGGAGTCACCTAGTGCAG,13100 fluorescence intensity (a.u.)
9,ACATAGCTCCTCCAAATATTTGTTTTGACTTGAAATCATCCGGAGTCACCTAGTGCAG,8710 fluorescence intensity (a.u.)
10,GGGAGGGGTCAGATCTCGGGAGCTTACCGGCGAGTAGAGCCGGAGTCACCTAGTGCAG,8240 fluorescence intensity (a.u.)
11,TTTAAGTTTGTTTGGTTGTGGGTTATAGGCTCTATTTCAACGGAGTCACCTAGTGCAG,12000 fluorescence intensity (a.u.)
12,ACTCCTATAACTCGTTTTCTATAGGCACATTTTCTAAATTCGGAGTCACCTAGTGCAG,9500 fluorescence intensity (a.u.)
13,GCCAACCGCATGCCGTCCCCGATGCCGCCCGCCGTCAACCCGGAGTCACCTAGTGCAG,8290 fluorescence intensity (a.u.)
14,CTGCTCAAGCAAGACTAATTACCGGTTGTTTACCCTACCTCGGAGTCACCTAGTGCAG,8210 fluorescence intensity (a.u.)
15,ACAGGAAACCCAATTCGATCCCTTCTATCTATCGATCCAACGGAGTCACCTAGTGCAG,8270 fluorescence intensity (a.u.)
16,AGTGTGCTCCATTTTCATTCGCTCTTAGATGTGTTTCATTCGGAGTCACCTAGTGCAG,9370 fluorescence intensity (a.u.)
17,AAGAGAGAGAGGGAGGGCAGCAGAAGGGGAGCGGCGAAGCCGGAGTCACCTAGTGCAG,9570 fluorescence intensity (a.u.)
18,CTTCACGGTCGGACTCGTCTTCTCCGGTCTCCCCAAATCGCGGAGTCACCTAGTGCAG,8150 fluorescence intensity (a.u.)
19,TCCCGGTGGAGTGGGAGGGGTGGCGGCTCAGACGGCGTGGCGGAGTCACCTAGTGCAG,12000 fluorescence intensity (a.u.)
20,TCGTCGATCATGTCACGGGCTCATCATCCACGCCGACGTACGGAGTCACCTAGTGCAG,8570 fluorescence intensity (a.u.)
21,CTTTTATCTCTTTCTCTGGCCACCAAGCTGGTTGTTGTATCGGAGTCACCTAGTGCAG,12200 fluorescence intensity (a.u.)
